Results are given in words; binding and its absence hold for the method and conditions named. Some results given as binding are weak or reduced against the parent protein; the word gives no strength.
B1: SC16.55 (antibody, V domains shown)
VH: EVQLVESGGGLVQPKGSLKLSCAVSAFTFTTYAMNWVRQAPGKGLEWVARIRNKSNNYATYYADSVKDRFTISRDDSQSMLYLQMNNLKIEDTAMYYCVFYYDYVYWGQGTLVTVSA
VL: DIKMTQSPSSMYASLGERVTITCKASQDINSYLNWFQQKPGKSPKTLIYRANRLVDGVPSRFSGSGSGQDYSLTISSLEYEDMGIYYCLQYDEFPYTFGGGTKLEIK
B2: SC16.56 (antibody, V domains shown)
VH: QIQLVQSGPELKKPGETVKISCKASGYTFTNYGMNWVKQAPGKGLKWMAWINTYTGEPTYADDFKGRFAFSLETSASTASLQIINLKNEDTATYFCARIGDSSPSDYWGQGTTLTVSS
VL: SIVMTQTPKFLLVSAGDRVTITCKASQSVSNDVVWYQQKPGQSPKLLIYYASNRYTGVPDRFAGSGYGTDFSFTISTVQAEDLAVYFCQQDYTSPWTFGGGTKLEIR
notes: murine hybridoma mAb
B3: SC16.57 (antibody, V domains shown)
VH: EVKLVESGGDLVKPGGSLKLSCAASGFAFSSYDMSWVRQTPEKRLEWVATISSGGSYTYYPDSVKGRFTISRDNVRDTLYLQMSSLRSEDTALYYCARQAIGTYFDYWGQGTTLTVSS
VL: DIVMTQSHKFMSISVGDRVSITCKASQDVSIFVAWYQQKPGQSPKLLIYSASYRYTGVPDRFTGSGSGTDFIFTISSVQAEDLAVYYCQQHYGTPFTFGSGTKLKIR
B4: SC16.58 (antibody, V domains shown)
VH: DVQLVESGGGLVQPGGSRKLSCAASGFTFSSFGMHWVRQAPEKGLEWVAYISSGSSNIYYADTVKGRFTISRDNPKNTLFLQMTSLRSEDTAMYYCARGYYGNYDAMDYWGQGTSVTVSS
VL: DIQMTQSPASLSSSVGETVTITCRASENIYSYLAWYQQKQGKSPQLLVYNAKTLAEGVPSRFSGSGSGTQFSLKINSLQPEDFGTYYCQHHYDSPLTFGAGTKLELR
B5: SC16.61 (antibody, V domains shown)
VH: EVLLQRSGPDLVKPGASVTIPCKASGYTFTDYNMDWVKQSHGKSLEWIGNINTYNGGTIYNQKFKGKATLTVDKPSSTAYMELRSLTSEDTAVYYCARRLRYGGHYFDYWGQGTALTVSS
VL: DIVMTQSTSSLAMSVGQKVTMSCKSSQSLLNSSNQKNYLAWYQQEPGQSPKLLVSFASTRESGVPDRFTGSGSGTDFTLTISGVQAEDLAVYYCQQHYSIPLTFGAGTKLELK
B6: SC16.62 (antibody, V domains shown)
VH: EVMLVESGGDLVKPGGSLKLSCAASGFTFSSYAMSWVRQTPEKRLEWVAYISGGGDHIYYPDSVRGRFTISRDNAKDTLYLQMSSLRSEDTALYDCARVRDWYFDVWGAGTTVTVSS
VL: DIKMTQSPSSMYASLGERVTITCKASQDINSFLSWFQRKPGKSPKTLIYRANRLVDGVPSRFTGSGSGQEFSLTISSLEYEDLGIYYCLQYDEFPYTFGGGTKLEIK
B7: SC16.63 (antibody, V domains shown)
VH: QVQLQQSGTELLRPGASVKISCKATGYTFSSYWMEWVKQRPGHGLEWIGEILPGSGTTQYNEKFKGKATFTADTSSNTAYMHLSSLTSEDSAVYYCARGTNSLWGQGTLVTVSA
VL: QIVLTQSPAIMSASPGEKVTMTCSASSSVSYMYWYQQKSGTSPKRWIYDTSKLASGVPARFSGSGSGTSYSLTISSMEAEDAATYYCQQWSSNPYTFGGGTKLEIK
B8: SC16.65 (antibody, V domains shown)
VH: QVTLKESGPGILQPSQTLSLTCSFSGFSLSTSGMGVGWIRQPSGKGLEWLALIWWDDVKRYNPALKSRLTISKDASSSQVFLKIASVDTADTATYYCARIASYDYDVVYAMDYWGQGTSVSVSS
VL: QIVLTQSPALMSASPGEKVTMTCSVTSSVSYMYWYQQKPRSSPKPWIYLTSNLASGVPARFSGSGSGTSYSLTISSVEAEDAATYYCQQWRNNPFTFGSGTKVEIK
notes: murine hybridoma mAb

Protein sequences, listed by entry. Tags and fused reporters are not part of them. Lines headed by an entry give the natural chain unless they say otherwise; changes in a name come on top.
UniProt Q9NYJ7: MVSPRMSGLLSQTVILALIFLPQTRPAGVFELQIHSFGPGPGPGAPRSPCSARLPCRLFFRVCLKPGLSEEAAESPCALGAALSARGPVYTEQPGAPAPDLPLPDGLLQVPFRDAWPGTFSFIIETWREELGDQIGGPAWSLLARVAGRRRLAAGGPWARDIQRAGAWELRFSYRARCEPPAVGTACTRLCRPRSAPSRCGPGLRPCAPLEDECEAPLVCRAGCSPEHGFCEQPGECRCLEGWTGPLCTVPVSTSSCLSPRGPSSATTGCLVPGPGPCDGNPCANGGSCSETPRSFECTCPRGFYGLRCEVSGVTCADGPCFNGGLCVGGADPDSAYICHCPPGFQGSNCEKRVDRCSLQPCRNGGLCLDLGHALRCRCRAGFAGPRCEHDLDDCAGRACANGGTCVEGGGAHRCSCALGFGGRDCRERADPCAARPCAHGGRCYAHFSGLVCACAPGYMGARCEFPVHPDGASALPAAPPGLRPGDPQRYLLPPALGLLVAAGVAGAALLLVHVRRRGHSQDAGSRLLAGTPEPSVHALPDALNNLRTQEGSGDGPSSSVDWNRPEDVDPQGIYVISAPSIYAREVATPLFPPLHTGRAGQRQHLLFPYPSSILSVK

Molecular target: human DLL3 (human) (UniProt Q9NYJ7)
Assay: hybridoma screening: ELISA on immobilized DLL3 or flow cytometry on HEK-293T cells overexpressing hDLL3

binding, binds:
B1
B2
B3
B4
B5
B6
B7
B8

Source: patent US20180243435A1 (AbbVie / Abbott, published 2018)
